Assay results published in paper PMC8759595.
Substitutions are numbered along the chain they refer to. Results are given in words; binding and its absence hold for the method and conditions named. Binding seen in cells or lysates may run through a third protein. For some of these results: A result given as binding can be weak or reduced; the word gives no strength. Tags and fused reporters may be left off the sequences shown.

How the values were obtained:
Assay in all cases: co-IP; Myc-ACBD5 constructs or Myc-VAPB in COS-7 lysates (10 mM Tris-HCl pH 7.4, 150 mM NaCl, 0.5 mM EDTA, 0.5% NP-40, phosphatase inhibitor), Myc-TRAP magnetic agarose beads 1 h at 4°C; immunoblot; in some panels GSK3β WT or K85A coexpressed (Figs. 2 C, 3 A, 5 A, 7 A, S1 C, S4 B)
Myc-ACBD5 S269E = target: T1, Myc-ACBD5 S269E (UniProt Q5T8D3)
T1 sequence: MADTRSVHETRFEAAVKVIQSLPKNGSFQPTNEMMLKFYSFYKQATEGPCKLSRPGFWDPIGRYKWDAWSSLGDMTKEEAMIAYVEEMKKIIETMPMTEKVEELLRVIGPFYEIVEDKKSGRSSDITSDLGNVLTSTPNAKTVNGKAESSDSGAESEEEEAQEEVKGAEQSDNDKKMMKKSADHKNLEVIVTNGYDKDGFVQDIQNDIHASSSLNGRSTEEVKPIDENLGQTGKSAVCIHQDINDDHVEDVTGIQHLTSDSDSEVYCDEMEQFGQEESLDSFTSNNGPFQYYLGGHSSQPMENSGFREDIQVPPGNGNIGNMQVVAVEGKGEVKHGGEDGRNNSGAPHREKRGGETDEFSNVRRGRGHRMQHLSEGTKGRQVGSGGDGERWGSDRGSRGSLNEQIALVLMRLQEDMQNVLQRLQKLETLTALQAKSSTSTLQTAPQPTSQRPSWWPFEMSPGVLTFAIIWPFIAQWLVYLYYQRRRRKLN

Myc-ACBD5 S259A/S261A = target: T2, Myc-ACBD5 S259A/S261A (UniProt Q5T8D3)
T2 sequence: T1 sequence with S259A, S261A, E269S

Myc-ACBD5 T258A/S259A = target: T3, Myc-ACBD5 T258A/S259A (UniProt Q5T8D3)
T3 sequence: T1 sequence with T258A, S259A, E269S

Myc-ACBD5 S269A = target: T4, Myc-ACBD5 S269A (UniProt Q5T8D3)
T4 sequence: T1 sequence with E269A

## endogenous VAPB (COS-7 cells)
Myc-ACBD5 S269E
  binding: no binding
Myc-ACBD5 S259A/S261A
  binding: binds
Myc-ACBD5 T258A/S259A
  binding: binds
Myc-ACBD5 S269A
  binding: binds
